Primary screen of a compound library

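Whole-parasite assay of Trypanosoma brucei over 72 hours; the read-out is not stated. Concentration: 30 µM. Direction is inferred from retests: higher values go with stronger inhibition. Values scatter widely below zero; nearly all retest evidence comes from the higher of the two concentrations used. Size under these conditions: about 64,000 compounds, about 940 of them at 50% or above in at least one test.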

The filed quantity is “Percent Effect” (%). The controls that fix the scale are not given in the record; negative values are as filed. The compounds are a random part of those screened.

SMILES,percent effect
CC(C)Cc1nc(CS(C)(=O)=O)n(-c2ccccn2)n1,-63.99%
CC(C(=O)Nc1ccnn1C(C)C)N1CCN(Cc2ccon2)CC1 (stereo unspecified),-17.3%
O=C(c1cccc2cn[nH]c12)N1CCCC1c1noc(C2CC2)n1 (stereo unspecified),12.09%
COC(=O)N1CCC(Nc2ccc(Cl)c(C#N)n2)CC1,25.75%
[H][C@]12CC[C@@]3(N=C(CC)N(C)C3=O)[C@@]1([H])CN(CC)C2,-51.31%
[H][C@@]12CCN(Cc3cccnc3OC)[C@]1([H])CC[C@@H](c1nnc(C)o1)O2,-58.68%
CC1CN(C)CCN1C(=O)c1ccn(-c2cccc(Cl)c2)n1 (stereo unspecified),20.16%
COc1ccc(F)c(NCC(C)(C)S(C)(=O)=O)c1,-46.14%
O=C(O)C(F)(F)F.O=C(O)C(F)(F)F.O=C(O)C(F)(F)F.[H][C@@]12COC[C@]1([H])[C@H](OCc1ccccn1)CN2Cc1cccnc1,-72.21%
COC(=O)[C@@H]1CN(S(=O)(=O)c2ccccc2)CCN1S(C)(=O)=O,-7.187%
CCN(C)S(=O)(=O)N1CCC(C(O)c2ccc(Cl)cc2)CC1 (stereo unspecified),-0.7523%
CCOc1ccccc1OCCN(C)Cc1nccn1C,-5.568%
Cc1cc(C)cc(CNCCS(=O)(=O)N2CCOCC2)c1,-55.8%
COCCN1CCN(C)C2(CCN(C(=O)c3ccnnc3)CC2)C1=O.O=C(O)C(F)(F)F,-23.8%
Cc1cc(C(=O)N(Cc2c(C)nn(C)c2C)C(C)C)nc(C)n1,-29.85%
CN1Cc2c(C(=O)NC3CCCCC3)ncn2-c2ccccc2S1(=O)=O.O=C(O)C(F)(F)F,-69.31%
CCOc1ccc(CN2CCCC(c3nn(C)c(=O)n3CC)C2)cn1 (stereo unspecified),-41.14%
Cl.O=C(c1ccccc1F)N1CC2(CCNCC2)c2cc(Cl)ccc21,-26.55%
Clc1ccc(-n2cnnc2CCCN2CCOCC2)cc1,24.41%
NCCC1CN(c2nc(-c3ccccc3)nc3c2CCNC3)CCO1 (stereo unspecified),-24.8%
O=C(NCc1c(F)cccc1Cl)c1cc(CN2CCCC(O)C2)on1 (stereo unspecified),-10.33%
Cc1cc(C[S+]([O-])CC(=O)NCc2cccc(Cl)c2)no1 (stereo unspecified),-1.428%
CC(=O)N1CCCC1c1cccc(Cc2ccccc2F)n1 (stereo unspecified),99.36%
CCn1cnnc1CNC(=O)NC(c1ccc(OC)cc1)C1CC1 (stereo unspecified),-24.03%
O=C(Cc1ccccc1O)Nc1ccc(N2CCCC2)nc1,-1.421%
Cc1nc(C2CN(Cc3ccc(F)cc3Br)CCO2)no1 (stereo unspecified),-10.35%
Cc1ccnc(N2CCC(C(N)=O)CC2)n1,-17.59%
[H][C@@]12CS(=O)(=O)C[C@]1([H])N(C(=O)c1cc(C(C)C)on1)CCN2CCOC,-34.63%
CC1(C)CN(C(=O)c2cc(F)cc3[nH]cnc23)CCS1,-32.45%
COc1ccccc1-c1cc(NC(=O)CC2CCS(=O)(=O)C2)[nH]n1 (stereo unspecified),-2.112%
Cc1cccc(CN2CCCC(c3nccs3)C2)n1 (stereo unspecified),7.696%
CNc1nc(C(=O)N2CCCN(c3ccnc(C)c3)CC2)cs1,6.544%
CN(C)c1ncnc2c1CCN(Cc1nccs1)CC2.O=C(O)C(F)(F)F,-11.55%
O=C(O)C(F)(F)F.[H][C@]12CN(Cc3cccnc3)C(=O)[C@@]1([H])CN(S(=O)(=O)C1CC1)C2,2.59%
Cc1cc(C)nc(CN(C)C(=O)c2ccccc2C2CCNC2)c1 (stereo unspecified),-8.929%
CNC(=O)C1CN(c2ccc(F)cc2)CCN1.Cl (stereo unspecified),-1.745%
Cc1cccc(CS(=O)(=O)CC(O)Cn2cccn2)c1 (stereo unspecified),-15.02%
COc1ccccc1CC(=O)N1CC[C@H](O)[C@]2(CCCO2)C1,-9.054%
c1ccc(-c2noc(CN3CCc4c(ncn4C4CC4)C3)n2)nc1,-9.575%
CCS(=O)(=O)N1CCC2(CN(C(=O)c3cscn3)C2)C1,-22.33%
CCCNC(=O)Cn1cc(C#N)c(=O)c2cc(Br)ccc21,-14.93%
CCc1cnc(N)nc1NCCCn1cc(Cl)cn1,-4.91%
O=C(CCN1CCOCC1)Nc1cccc(CNCc2cccs2)c1,-3.42%
CNC(=O)NC(=O)CN1CCN(CC(F)(F)F)CC1(C)C,-7.757%
CCS(=O)(=O)CC(=O)Nc1ccccc1N1CCc2ccccc21,-23.79%
CCOC(=O)N1CCN(C(=O)c2sc(-c3ccc(F)cc3)nc2C)CC1,31.7%
O=C(Nc1ccc(F)cc1)N1CCC2(CCC(=O)N(C3CC3)C2)CC1,-17.5%
Cc1nc(C(Cc2ccsc2)NC(=O)CN2CCOCC2)sc1C (stereo unspecified),-20.14%
CCOC1CCN(C(=O)NCc2cccc(-n3cccn3)c2)CC1,-25.33%
CN(Cc1nnc(C2CC2)n1C)S(=O)(=O)Cc1ccccc1F,-4.456%
CC1(C)CC1C(=O)NS(=O)(=O)Cc1cc(-c2ccccc2)no1 (stereo unspecified),-1.423%
CC(C)c1nnc2n1CC(CNCc1ccncc1)CC2 (stereo unspecified),-21.27%
Cc1cccc(C)c1OCCNC(=O)NC(C)c1nncn1C (stereo unspecified),-85.66%
CCOc1cc(C(=O)O)cc(-c2ccccc2)c1OC,-11.85%
COc1cccc([C@@H]2CCN(Cc3ccc4ccccc4n3)C[C@H]2O)c1,31.96%
O=C(c1cccc(S(=O)(=O)NCCc2ccccn2)c1)N1CCOCC1,-18.17%
CCN(CC)CC(=O)NCCc1csc(N2CCCC2)n1,-4.946%
Cc1nc(CN2C(=O)COC3(CCN(C)CC3)C2C)cs1.O=C(O)C(F)(F)F (stereo unspecified),-3.515%
[H][C@]12CCN(C(=O)NC)CC[C@@]1([H])S(=O)(=O)N(CC)C2,-14.01%
Cn1cnc(CNC(=O)c2ccccc2-n2cc(CN)cn2)c1,9.928%
CC(NC(=O)COc1cccc[n+]1[O-])C1CC1 (stereo unspecified),3.844%
CCN1CCN(c2ccc(F)cc2C(C)NCc2noc(C)n2)CC1 (stereo unspecified),-15.02%
O=C(NCCNc1ncccn1)c1ccc(OCc2ccccc2)nc1,-22.92%
CCSc1ccc(NC(=O)NC(C)c2c(C)noc2C)cn1 (stereo unspecified),-32.25%
O=C(O)C(F)(F)F.O=C(O)C(F)(F)F.O=C1CC(c2ccncc2)C2(CCN(CCc3ccccc3)CC2)N1 (stereo unspecified),36.79%
COCc1cccc(CNC(=O)c2c(C)noc2C(C)C)c1,-28.06%
CCCc1nc(C[S+]([O-])Cc2cn3cccc(C)c3n2)no1 (stereo unspecified),5.77%
Cc1ccc(-c2cccc(N3CCC(NC4CCOCC4)CC3)c2)cc1,8.614%
O=C(O)C(F)(F)F.O=C(O)C(F)(F)F.[H][C@@]12CN(CC3CCOCC3)C[C@]1([H])OCCN2c1ncccn1,-91.37%
CN1C(=O)CC[C@]12CC[C@@H](NC(=O)NCc1cccnc1)CC2.O=C(O)C(F)(F)F,-92.86%
CC1(C)OC(=O)N(CCCC(=O)c2ccc(F)cc2)C1=O,-38.33%
Cc1nc2c(c(=O)n1C)CN(C(=O)C1CCN(C(=O)C3CCC3)CC1)C2,-23.15%
CCCN1CC(NC(=O)Nc2nc(C)n(C(C)C)n2)CC1=O (stereo unspecified),6.875%
CC(C)NC(=O)Nc1ccc(CNCc2cccc(OC(F)F)c2)cc1,-2.434%
CCC1CN(Cc2cccc(C(=O)N(C)C)c2)CCN1CCOC (stereo unspecified),1.028%
Cc1noc(C(C)C)c1C(=O)N1CCCN(Cc2cscn2)CC1,14.71%
COc1ccc(OC)c(CCNC(=O)CCC2CCCO2)c1 (stereo unspecified),-25.01%
O=C(Cc1cccs1)NCC1(O)CCSCC1,-16.32%
Cc1cccc(Cc2nc3c([nH]2)CCCNC3=O)c1,-3.182%
Cc1cc(N2CCC(N(C)Cc3cc(=O)c(O)co3)CC2)nc(C)n1,-95.38%
CC(=O)N1CCN(C(=O)CN2CCN(c3cccc(C)c3)CC2)CC1,-51.14%

The last 8 entries again:

| SMILES | percent effect |
|---|---|
| `CC(C)NC(=O)Nc1ccc(CNCc2cccc(OC(F)F)c2)cc1` | -2.434% |
| `CCC1CN(Cc2cccc(C(=O)N(C)C)c2)CCN1CCOC` (stereo unspecified) | 1.028% |
| `Cc1noc(C(C)C)c1C(=O)N1CCCN(Cc2cscn2)CC1` | 14.71% |
| `COc1ccc(OC)c(CCNC(=O)CCC2CCCO2)c1` (stereo unspecified) | -25.01% |
| `O=C(Cc1cccs1)NCC1(O)CCSCC1` | -16.32% |
| `Cc1cccc(Cc2nc3c([nH]2)CCCNC3=O)c1` | -3.182% |
| `Cc1cc(N2CCC(N(C)Cc3cc(=O)c(O)co3)CC2)nc(C)n1` | -95.38% |
| `CC(=O)N1CCN(C(=O)CN2CCN(c3cccc(C)c3)CC2)CC1` | -51.14% |

Data taken from ChEMBL document CHEMBL3988442, “University of Dundee, Small-Polar-MMV Screening Library” (2021).